# Article doi:10.1101/2023.05.06.539678
# Chains of the proteins cited; added tags and fusions are not shown.
# UniProt Q13596: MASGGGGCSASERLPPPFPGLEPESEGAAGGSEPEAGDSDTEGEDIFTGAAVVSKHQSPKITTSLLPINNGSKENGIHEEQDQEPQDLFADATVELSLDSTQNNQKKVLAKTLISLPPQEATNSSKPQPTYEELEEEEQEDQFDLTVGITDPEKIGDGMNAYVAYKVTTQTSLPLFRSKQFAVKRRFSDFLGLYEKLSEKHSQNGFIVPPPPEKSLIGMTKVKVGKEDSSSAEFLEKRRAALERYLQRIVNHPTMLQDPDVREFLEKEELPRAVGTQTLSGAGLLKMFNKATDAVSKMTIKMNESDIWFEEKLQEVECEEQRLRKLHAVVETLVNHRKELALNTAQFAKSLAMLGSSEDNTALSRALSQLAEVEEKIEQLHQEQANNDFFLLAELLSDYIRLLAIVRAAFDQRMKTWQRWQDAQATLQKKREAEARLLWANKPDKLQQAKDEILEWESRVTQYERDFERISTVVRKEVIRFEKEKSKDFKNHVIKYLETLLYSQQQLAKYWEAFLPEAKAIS
# UniProt Q92609: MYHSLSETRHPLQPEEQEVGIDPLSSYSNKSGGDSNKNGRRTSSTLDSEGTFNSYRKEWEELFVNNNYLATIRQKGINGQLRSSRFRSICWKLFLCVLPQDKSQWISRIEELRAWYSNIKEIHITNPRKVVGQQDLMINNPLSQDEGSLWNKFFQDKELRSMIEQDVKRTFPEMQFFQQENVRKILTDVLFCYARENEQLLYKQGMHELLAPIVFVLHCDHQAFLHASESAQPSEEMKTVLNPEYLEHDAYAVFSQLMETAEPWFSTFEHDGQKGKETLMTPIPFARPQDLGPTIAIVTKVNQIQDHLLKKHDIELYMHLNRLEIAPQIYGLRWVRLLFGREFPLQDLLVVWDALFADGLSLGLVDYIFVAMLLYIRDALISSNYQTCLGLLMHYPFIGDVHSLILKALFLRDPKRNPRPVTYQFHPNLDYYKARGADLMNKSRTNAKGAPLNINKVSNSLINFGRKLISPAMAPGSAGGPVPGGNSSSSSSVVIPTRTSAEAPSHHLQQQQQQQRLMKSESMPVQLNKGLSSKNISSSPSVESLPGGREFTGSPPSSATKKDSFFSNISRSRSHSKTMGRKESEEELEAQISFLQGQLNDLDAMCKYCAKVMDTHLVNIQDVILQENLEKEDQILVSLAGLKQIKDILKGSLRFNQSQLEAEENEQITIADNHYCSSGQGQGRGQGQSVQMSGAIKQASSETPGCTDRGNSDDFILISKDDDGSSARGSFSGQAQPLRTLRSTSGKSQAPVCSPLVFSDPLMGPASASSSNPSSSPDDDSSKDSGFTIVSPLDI
# These are yes or no findings as the source states them, for the method shown. In cells and extracts the contact can be indirect. Some results given as binding are weak or reduced against the parent protein; the word gives no strength.
# T1: EMP3 in U-118 cells (proximity ligation assay) (human (endogenous in U-118)) (UniProt P54852)
# T1 sequence: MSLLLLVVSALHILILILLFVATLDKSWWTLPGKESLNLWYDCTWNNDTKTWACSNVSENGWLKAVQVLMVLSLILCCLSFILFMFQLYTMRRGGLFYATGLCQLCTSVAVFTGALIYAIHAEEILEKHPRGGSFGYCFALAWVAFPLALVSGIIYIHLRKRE
# Molecular target: T1, EMP3 in U-118 cells (proximity ligation assay) (human (endogenous in U-118))
# Assay: proximity ligation
row,Molecule,binding
1,SNX1 (from UniProt Q13596 1-522),binds
2,TBC1D5 (from UniProt Q92609 1-795),binds
3,EGFR (from UniProt P00533 25-1210) (receptor),binds
4,"VPS53 (protein, UniProt Q5VIR6 1-832) MMEEEELEFVEELEAVLQLTPEVQLAIEQVFPSQDPLDRADFNAVEYINTLFPTEQSLANIDEVVNKIRLKIRRLDDNIRTVVRGQTNVGQDGRQALEEAQKAIQQLFGKIKDIKDKAEKSEQMVKEITRDIKQLDHAKRHLTTSITTLNHLHMLAGGVDSLEAMTRRRQYGEVANLLQGVMNVLEHFHKYMGIPQIRQLSERVKAAQTELGQQILADFEEAFPSQGTKRPGGPSNVLRDACLVANILDPRIKQEIIKKFIKQHLSEYLVLFQENQDVAWLDKIDRRYAWIKRQLVDYEEKYGRMFPREWCMAERIAVEFCHVTRAELAKIMRTRAKEIEVKLLLFAIQRTTNFEGFLAKRFSGCTLTDGTLKKLESPPPSTNPFLEDEPTPEMEELATEKGDLDQPKKPKAPDNPFHGIVSKCFEPHLYVYIESQDKNLGELIDRFVADFKAQGPPKPNTDEGGAVLPSCADLFVYYKKCMVQCSQLSTGEPMIALTTIFQKYLREYAWKILSGNLPKTTTSSGGLTISSLLKEKEGSEVAKFTLEELCLICNILSTAEYCLATTQQLEEKLKEKVDVSLIERINLTGEMDTFSTVISSSIQLLVQDLDAACDPALTAMSKMQWQNVEHVGDQSPYVTSVILHIKQNVPIIRDNLASTRKYFTQFCVKFANSFIPKFITHLFKCKPISMVGAEQLLLDTHSLKMVLLDLPSISSQVVRKAPASYTKIVVKGMTRAEMILKVVMAPHEPLVVFVDNYIKLLTDCNTETFQKILDMKGLKRSEQSSMLELLRQRLPAPPSGAESSGSLSLTAPTPEQESSRIRKLEKLIKKRL",binds
